Record: PubChem BioAssay AID504784 (Drosophila RNAi Screening Center, 2011)
The deposit covers about 17,000 reagents; shown is an unselected part of those that have a named target and a result. 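Each column is one replicate's B-score; the combined score over replicates was not deposited, so single values may mislead.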 Names joined by + are all predicted targets of the reagent.

- Aim: 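Search for regulators of lipid droplet storage in oleate-fed fly cells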 (primary screen)
- System: Drosophila Kc167 embryonic cells
- Knock-down reagent: long dsRNA against Drosophila genes, about 250 ng dsRNA per well
- Time to read-out: 4 days
- Treatment: cells fed 400 µM oleic acid bound to BSA
- Measured: 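Microscope images give a droplet-to-nucleus area ratio, taken as log and converted to a screen-wide B-score; higher values mean greater lipid storage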
- Direction: droplet/nuclear area B-score: higher = more stored lipid (overstorage)

Gene,dsRNA,"droplet/nuclear area B-score, replicate 1","droplet/nuclear area B-score, replicate 2","droplet/nuclear area B-score, replicate 3"
CG12439,DRSC02168,0.692,-0.643,
CG9213,DRSC20170,0.00298,0.439,0.112
Bet5 (Blocked early in transport 5),DRSC14600,-0.727,-0.417,
CG31787,DRSC01632,-0.107,0.209,
trv (trivet),DRSC13846,0.055,-0.379,
trv (trivet),DRSC14559,1.44,2.18,
trv (trivet),DRSC14560,0.00556,-0.27,
trv (trivet),DRSC14561,0.85,-0.53,
Spn42De (Serpin 42De),DRSC05011,0.122,0.636,
CG12483,DRSC08278,0.159,-0.304,
IFT57 (Intraflagellar transport 57),DRSC00720,-1.08,1.6,
DptB (Diptericin B),DRSC06001,-2.83,-0.186,
CG32795,DRSC18609,-0.852,-1.8,
CG32795,DRSC18610,0.0175,-0.785,
Prosbeta2R2 (Proteasome beta2 subunit-related 2),DRSC12193,-1.06,1.08,
yellow-f,DRSC15348,-0.433,1.11,
dom (domino),DRSC04558,-0.312,2.41,
dom (domino),DRSC04559,1.59,3.02,
Tig (Tiggrin),DRSC03456,0.519,0.825,
Med (Medea),DRSC16737,-1.82,-1.6,
CG5079,DRSC15713,0.0202,1.92,
CG5079,DRSC23061,-0.92,-0.107,
RpL10Aa (Ribosomal protein L10Aa),DRSC15518,3.61,3.42,
CG13409,DRSC14585,-0.816,0.627,
smash (smallish),DRSC12139,-0.802,0.684,0.381
smash (smallish),DRSC12239,1,-0.622,
scpr-A + scpr-C + scpr-B,DRSC15715,-0.167,-1.07,
eIF2Bepsilon (eukaryotic translation initiation factor 2B subunit epsilon),DRSC18769,1.72,,
CG3906,DRSC04431,-0.167,0.00731,
ppk29 (pickpocket 29),DRSC04205,-0.454,-1.38,
CG32192,DRSC21760,0.973,1.43,
CG42514,DRSC10428,-3.23,1.03,0.855
Doc1 (Dorsocross1),DRSC11146,-0.153,1.31,
CG14300,DRSC14779,-0.296,-0.102,
Tdc2 (Tyrosine decarboxylase 2),DRSC04999,1.56,1.35,
Osi10b (Osiris 10b),DRSC12279,1.3,1.1,
CG7352,DRSC16233,2.14,-1.4,
GAA1 (Glycosylphosphatidylinositol anchor attachment 1),DRSC18267,-1.08,-2.77,1.28
CG3036,DRSC00260,-1.05,1.43,
CG3036,DRSC00562,-0.199,-1,
mRpL45 (mitochondrial ribosomal protein L45),DRSC16146,2.37,2.97,
mRpL10 (mitochondrial ribosomal protein L10),DRSC00312,2.61,-0.462,
CG11905,DRSC09863,0.181,-0.147,-1.5
CG13896,DRSC08366,1.2,-0.0263,
CG13228,DRSC06348,1.09,2.62,
CG31798,DRSC01702,-1.09,1.07,
ord (orientation disruptor),DRSC04706,-0.864,-0.261,
r + CG13012,DRSC19531,-0.619,-0.00467,
Dph1 (Diphthamide biosynthesis 1),DRSC09851,2.78,-0.589,
beat-IV (beaten path IV),DRSC14195,1.35,0.645,
beat-IV (beaten path IV),DRSC14673,-0.21,-3.35,
bard,DRSC14796,-0.673,0.162,
mRpL17 (mitochondrial ribosomal protein L17),DRSC08350,1.31,2.14,
Nepl3 (Neprilysin-like 3),DRSC02681,-0.0902,-0.862,
CG3502,DRSC04381,1.63,-0.401,
pot (papillote),DRSC19850,0.00985,1.99,0.0368
CG31675,DRSC01825,-0.786,-0.178,
MESR4 (Misexpression suppressor of ras 4),DRSC06901,0.00856,0.181,
CtIP (CTBP-interacting protein),DRSC11785,-0.0468,0.000777,
Drsl2 (Drosomycin-like 2),DRSC08160,0.627,-0.218,
Tsp96F (Tetraspanin 96F),DRSC14147,-2,0.681,
CG6497,DRSC10654,-1.46,-0.893,
CG6497,DRSC21469,1.51,-1.62,
CG10208,DRSC14211,-2.84,-1.43,
CG18507,DRSC01334,0.245,-2.2,
CG18507,DRSC01914,0.606,0.221,
CG33229,DRSC07863,-0.268,-0.763,
Pfrx (6-phosphofructo-2-kinase),DRSC18856,0.61,-0.316,
Pfrx (6-phosphofructo-2-kinase),DRSC19315,-0.147,-0.0492,
pch2 (pachytene checkpoint 2),DRSC14368,5.05,3.54,
Srg1 (Sting-regulated gene 1),DRSC14640,1.98,-0.0734,
CG15642,DRSC19678,0.318,0.0218,
lbm (late bloomer),DRSC07643,1.13,1.3,
CG11291,DRSC04097,0.668,0.072,
scro (scarecrow),DRSC17102,-0.702,1.07,
Ldaf1 (Lipid droplet assembly factor 1),DRSC17963,0.447,0.674,
PlexB (Plexin B),DRSC17177,0.283,0.455,
Cad87A (Cadherin 87A),DRSC16161,-0.0807,0.753,
CG12780,DRSC06169,-0.0118,-0.447,
Pex11ab (Peroxin 11a/b),DRSC07145,2.96,-1.21,
rictor (rapamycin-insensitive companion of Tor),DRSC20071,0.931,4.19,
Fkbp12 (FK506-binding protein 12kD),DRSC07425,0.0184,-0.888,
CG9706,DRSC11095,-0.502,0.848,1.32
Csas (CMP-sialic acid synthase),DRSC22390,0.902,1.42,
CG6660,DRSC16087,0.592,-0.0455,
CG17672,DRSC09230,-0.707,-0.373,
CG17672,DRSC10278,-1.17,-0.595,
alpha-Est8 (alpha-Esterase-8),DRSC12620,-0.372,-0.563,
PGRP-LA (Peptidoglycan recognition protein LA),DRSC10327,0.00856,1.51,
PGRP-LA (Peptidoglycan recognition protein LA),DRSC10414,-0.195,-0.0936,
CG14312,DRSC14791,0.336,-2.81,
Girdin,DRSC08292,-0.0873,1.15,
CG30340,DRSC05167,-1.12,-0.752,
CG31855,DRSC02968,-0.0373,2.72,
ninaG,DRSC16102,-0.109,-0.013,
vap (vacuolar peduncle),DRSC20275,0.265,-1.09,2.04
"betaNACtes3 (Nascent-associated complex beta-subunit-like, testis 3)",DRSC20183,-0.0275,-0.603,
CG5002,DRSC06911,-0.134,0.635,
Nf-YC (Nuclear factor Y-box C),DRSC18272,-0.656,-1.23,
Nf-YC (Nuclear factor Y-box C),DRSC23106,-0.831,-0.852,
Actn (alpha actinin),DRSC17724,0.838,,
Lmx1a (LIM homeobox transcription factor 1 alpha),DRSC09726,2.46,3.41,
Lmx1a (LIM homeobox transcription factor 1 alpha),DRSC10275,-1.18,0.505,
Blm (Bloom syndrome helicase),DRSC16911,-1.44,,
fd96Ca (forkhead domain 96Ca),DRSC16946,0.456,-0.516,

Just “droplet/nuclear area B-score, replicate 2” (6 entries from above):
CG31787 [DRSC01632]: 0.209
trv (trivet) [DRSC13846]: -0.379
trv (trivet) [DRSC14559]: 2.18
trv (trivet) [DRSC14560]: -0.27
trv (trivet) [DRSC14561]: -0.53
Spn42De (Serpin 42De) [DRSC05011]: 0.636
